For at least one compound, name, drawing or mass did not settle the structure. Some entries share one result that the patent states for a list of compounds.
Assay: Steady state blood glucose in nude mice (Example 41)
Format: in vivo, Mus musculus
Conditions: for Absolute Blood Glucose AUC: 15-120 minutes after the last dose (Day 28)
Method: Blood glucose levels were measured via a tail knick using Abbott's “Freestyle Lite” Handheld Blood Glucose Monitor (Abbott Laboratories) at 15, 30, 60, 90, 120, and 1440 minutes after the last dose (Day 28).

Structure (SMILES)	Absolute Blood Glucose AUC (0.3 mg/kg QD) [mg/dL]	Absolute Blood Glucose AUC (1.0 mg/kg QD 3on/4off) [mg/dL]	Absolute Blood Glucose AUC (3 mg/kg QW) [mg/dL]	Absolute Blood Glucose AUC (60 mg/kg QD) [mg/dL]	Absolute Blood Glucose AUC (70 mg/kg QD 3on/4off) [mg/dL]	Absolute Blood Glucose AUC (140 mg/kg QD 3on/4off) [mg/dL]	Absolute Blood Glucose AUC (210 mg/kg QW) [mg/dL]	fold increase in the mean AUC of blood glucose over control (single agent groups (all doses), 0-2 hrs post dose)
CC(C)n1nc(-c2ccc3oc(N)nc3c2)c2c(N)ncnc21 [Compound B]	13075	14163	16633					
Nc1nc2cc(-c3ccc4ncc(C(=O)N5CCOCC5)n4c3)ccc2o1 [Compound A]				12018	12638	15560	14400	1.02-1.34 fold

Source: patent publication US20150087627A1, “COMBINATION OF KINASE INHIBITORS AND USES THEREOF” (Intellikine LLC, priority 2011, published 2015)
